The list shows a part of the results.
Tests used:
Assay in all cases: log2 fold change, soluble protein after heating vs DMSO (PISA); higher = thermal stabilisation; K562 cells, 10 uM, 30 min; active = over 0.2 and 3.5 SD of the protein, either way, in both replicates (recomputed)
[1] = compound: C1=CC=C(C=C1)[C@H](COC2=CC3=C(C=C2)NC(=O)N3)NC(=O)C4=CC=CN(C4=O)CC5=CC(=C(C=C5)F)F
Method in brief: (§1)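 K562 cells at 2×10^6 cells/mL were exposed to 10 μM compound for 30 min, then aliquots were heated for 3 min across 48°C-58°C, pooled, and extracted in PBS containing 0.5% NP-40 at 4°C. The supernatant after 21,000xg for 90 min was taken as soluble protein and measured by TMTpro 16plex LC-MS/MS with channel sums equalised. Thermal stability is reported relative to control samples, with values from duplicates. Fold changes are given on a log2 scale.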

Sequences of proteins named here, by UniProt entry; tags and fusion partners are left off. A change or cut given only in a name is not applied to a line headed by its entry.
UniProt Q9UI26: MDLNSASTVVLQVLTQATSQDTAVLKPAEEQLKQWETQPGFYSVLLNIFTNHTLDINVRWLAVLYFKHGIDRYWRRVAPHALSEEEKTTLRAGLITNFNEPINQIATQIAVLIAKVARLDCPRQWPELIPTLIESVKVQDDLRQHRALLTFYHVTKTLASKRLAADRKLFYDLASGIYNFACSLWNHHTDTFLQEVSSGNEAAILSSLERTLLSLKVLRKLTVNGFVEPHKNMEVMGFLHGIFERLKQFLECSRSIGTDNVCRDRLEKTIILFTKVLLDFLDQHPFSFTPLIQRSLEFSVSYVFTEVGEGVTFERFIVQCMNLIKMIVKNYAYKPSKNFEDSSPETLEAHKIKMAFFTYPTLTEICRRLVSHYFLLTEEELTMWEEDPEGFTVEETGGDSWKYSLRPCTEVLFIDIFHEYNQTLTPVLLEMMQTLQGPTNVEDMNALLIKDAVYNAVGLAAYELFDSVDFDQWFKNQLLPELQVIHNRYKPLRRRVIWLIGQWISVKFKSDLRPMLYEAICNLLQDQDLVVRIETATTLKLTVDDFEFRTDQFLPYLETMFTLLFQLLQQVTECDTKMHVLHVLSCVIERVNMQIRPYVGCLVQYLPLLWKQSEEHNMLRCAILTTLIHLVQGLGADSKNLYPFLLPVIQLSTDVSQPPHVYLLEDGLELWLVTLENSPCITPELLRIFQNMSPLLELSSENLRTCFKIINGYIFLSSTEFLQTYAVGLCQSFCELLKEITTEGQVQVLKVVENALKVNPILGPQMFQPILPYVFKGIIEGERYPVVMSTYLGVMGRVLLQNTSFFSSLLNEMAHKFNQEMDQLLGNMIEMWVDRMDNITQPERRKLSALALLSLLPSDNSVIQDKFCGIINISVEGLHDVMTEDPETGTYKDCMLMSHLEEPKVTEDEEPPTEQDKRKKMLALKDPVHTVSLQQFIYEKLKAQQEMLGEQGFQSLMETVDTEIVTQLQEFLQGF
UniProt Q7Z5L9: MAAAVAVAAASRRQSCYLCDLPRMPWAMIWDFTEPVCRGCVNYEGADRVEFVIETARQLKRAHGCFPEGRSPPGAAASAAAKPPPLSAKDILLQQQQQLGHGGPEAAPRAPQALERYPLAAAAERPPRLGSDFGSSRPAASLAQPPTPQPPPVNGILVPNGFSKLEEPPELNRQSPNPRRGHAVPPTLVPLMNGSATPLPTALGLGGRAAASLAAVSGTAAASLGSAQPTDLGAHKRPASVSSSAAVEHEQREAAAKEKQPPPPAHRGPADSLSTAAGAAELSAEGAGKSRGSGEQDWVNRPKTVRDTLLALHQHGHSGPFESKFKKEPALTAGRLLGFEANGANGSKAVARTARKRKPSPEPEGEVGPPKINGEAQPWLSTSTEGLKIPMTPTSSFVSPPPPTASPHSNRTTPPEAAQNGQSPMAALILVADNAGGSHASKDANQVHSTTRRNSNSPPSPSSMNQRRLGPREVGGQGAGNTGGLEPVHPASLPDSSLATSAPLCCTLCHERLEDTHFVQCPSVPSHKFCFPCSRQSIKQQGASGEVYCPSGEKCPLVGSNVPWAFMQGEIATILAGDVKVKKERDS
UniProt Q9P2H3, whole entry, looked up: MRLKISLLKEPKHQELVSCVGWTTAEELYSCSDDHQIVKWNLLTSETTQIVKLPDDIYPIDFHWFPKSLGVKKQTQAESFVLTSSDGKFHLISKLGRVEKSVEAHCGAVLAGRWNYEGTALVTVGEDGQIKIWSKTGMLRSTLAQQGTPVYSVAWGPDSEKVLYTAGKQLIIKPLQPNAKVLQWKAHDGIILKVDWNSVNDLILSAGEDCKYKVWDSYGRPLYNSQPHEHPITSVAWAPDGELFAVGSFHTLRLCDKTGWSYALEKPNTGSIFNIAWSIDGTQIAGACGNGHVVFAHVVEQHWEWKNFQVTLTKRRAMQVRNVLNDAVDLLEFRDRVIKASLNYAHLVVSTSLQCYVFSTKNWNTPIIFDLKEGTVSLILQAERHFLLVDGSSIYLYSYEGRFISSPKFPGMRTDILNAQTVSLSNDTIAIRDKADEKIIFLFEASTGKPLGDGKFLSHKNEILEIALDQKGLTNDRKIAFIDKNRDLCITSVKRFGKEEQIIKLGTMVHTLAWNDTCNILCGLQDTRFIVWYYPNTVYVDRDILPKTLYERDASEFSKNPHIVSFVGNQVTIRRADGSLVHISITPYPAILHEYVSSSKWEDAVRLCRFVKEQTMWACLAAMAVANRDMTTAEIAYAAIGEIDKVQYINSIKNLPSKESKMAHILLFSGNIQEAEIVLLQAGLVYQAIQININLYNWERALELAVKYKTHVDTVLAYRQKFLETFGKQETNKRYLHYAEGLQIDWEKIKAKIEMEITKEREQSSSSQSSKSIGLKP
UniProt P29218: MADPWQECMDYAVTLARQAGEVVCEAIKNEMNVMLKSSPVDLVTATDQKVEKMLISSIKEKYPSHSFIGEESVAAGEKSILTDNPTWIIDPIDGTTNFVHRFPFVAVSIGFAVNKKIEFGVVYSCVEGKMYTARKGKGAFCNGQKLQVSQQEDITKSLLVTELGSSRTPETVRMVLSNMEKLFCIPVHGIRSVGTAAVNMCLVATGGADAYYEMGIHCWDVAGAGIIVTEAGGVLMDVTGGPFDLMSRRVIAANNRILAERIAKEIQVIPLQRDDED
UniProt A1L0T0: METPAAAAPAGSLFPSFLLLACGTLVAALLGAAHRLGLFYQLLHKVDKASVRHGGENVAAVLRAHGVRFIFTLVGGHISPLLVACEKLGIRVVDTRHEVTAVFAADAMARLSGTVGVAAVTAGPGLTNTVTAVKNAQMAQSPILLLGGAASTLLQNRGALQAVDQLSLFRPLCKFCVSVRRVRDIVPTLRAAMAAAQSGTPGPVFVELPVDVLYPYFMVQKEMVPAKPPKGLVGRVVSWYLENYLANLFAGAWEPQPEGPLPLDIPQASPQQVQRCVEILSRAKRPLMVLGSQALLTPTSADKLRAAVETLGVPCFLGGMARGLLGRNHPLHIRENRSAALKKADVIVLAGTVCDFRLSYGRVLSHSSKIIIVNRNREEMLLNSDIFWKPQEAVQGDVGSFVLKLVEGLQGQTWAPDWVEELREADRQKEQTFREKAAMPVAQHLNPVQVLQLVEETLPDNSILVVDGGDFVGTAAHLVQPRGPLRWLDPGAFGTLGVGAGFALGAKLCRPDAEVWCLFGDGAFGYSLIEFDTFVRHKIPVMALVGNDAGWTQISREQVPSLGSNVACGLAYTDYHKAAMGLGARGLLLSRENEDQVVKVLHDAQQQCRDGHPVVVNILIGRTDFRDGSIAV
UniProt Q9H1K1: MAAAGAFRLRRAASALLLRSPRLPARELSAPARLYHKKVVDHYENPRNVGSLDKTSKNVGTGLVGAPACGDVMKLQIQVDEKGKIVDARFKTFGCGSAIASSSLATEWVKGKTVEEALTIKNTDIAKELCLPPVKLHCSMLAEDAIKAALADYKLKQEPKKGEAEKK
UniProt Q9H6K1: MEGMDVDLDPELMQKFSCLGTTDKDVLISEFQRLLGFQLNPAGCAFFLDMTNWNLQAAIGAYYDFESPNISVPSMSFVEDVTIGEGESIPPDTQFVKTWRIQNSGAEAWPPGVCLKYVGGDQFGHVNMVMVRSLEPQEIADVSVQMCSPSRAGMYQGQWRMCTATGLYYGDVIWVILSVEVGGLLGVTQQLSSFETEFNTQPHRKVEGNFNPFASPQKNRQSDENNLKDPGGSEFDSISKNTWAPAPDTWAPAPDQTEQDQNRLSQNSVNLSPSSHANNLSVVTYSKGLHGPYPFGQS
UniProt P50213: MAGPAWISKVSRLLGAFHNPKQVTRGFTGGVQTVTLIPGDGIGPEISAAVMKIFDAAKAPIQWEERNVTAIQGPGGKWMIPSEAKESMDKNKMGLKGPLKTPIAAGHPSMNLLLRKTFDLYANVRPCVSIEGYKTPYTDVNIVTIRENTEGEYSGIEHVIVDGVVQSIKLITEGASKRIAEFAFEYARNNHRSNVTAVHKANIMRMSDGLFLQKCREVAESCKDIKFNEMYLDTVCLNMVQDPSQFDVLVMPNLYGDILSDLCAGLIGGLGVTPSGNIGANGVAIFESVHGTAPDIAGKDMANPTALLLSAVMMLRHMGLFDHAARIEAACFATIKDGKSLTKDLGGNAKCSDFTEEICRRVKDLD
UniProt Q96HW7, whole entry, looked up: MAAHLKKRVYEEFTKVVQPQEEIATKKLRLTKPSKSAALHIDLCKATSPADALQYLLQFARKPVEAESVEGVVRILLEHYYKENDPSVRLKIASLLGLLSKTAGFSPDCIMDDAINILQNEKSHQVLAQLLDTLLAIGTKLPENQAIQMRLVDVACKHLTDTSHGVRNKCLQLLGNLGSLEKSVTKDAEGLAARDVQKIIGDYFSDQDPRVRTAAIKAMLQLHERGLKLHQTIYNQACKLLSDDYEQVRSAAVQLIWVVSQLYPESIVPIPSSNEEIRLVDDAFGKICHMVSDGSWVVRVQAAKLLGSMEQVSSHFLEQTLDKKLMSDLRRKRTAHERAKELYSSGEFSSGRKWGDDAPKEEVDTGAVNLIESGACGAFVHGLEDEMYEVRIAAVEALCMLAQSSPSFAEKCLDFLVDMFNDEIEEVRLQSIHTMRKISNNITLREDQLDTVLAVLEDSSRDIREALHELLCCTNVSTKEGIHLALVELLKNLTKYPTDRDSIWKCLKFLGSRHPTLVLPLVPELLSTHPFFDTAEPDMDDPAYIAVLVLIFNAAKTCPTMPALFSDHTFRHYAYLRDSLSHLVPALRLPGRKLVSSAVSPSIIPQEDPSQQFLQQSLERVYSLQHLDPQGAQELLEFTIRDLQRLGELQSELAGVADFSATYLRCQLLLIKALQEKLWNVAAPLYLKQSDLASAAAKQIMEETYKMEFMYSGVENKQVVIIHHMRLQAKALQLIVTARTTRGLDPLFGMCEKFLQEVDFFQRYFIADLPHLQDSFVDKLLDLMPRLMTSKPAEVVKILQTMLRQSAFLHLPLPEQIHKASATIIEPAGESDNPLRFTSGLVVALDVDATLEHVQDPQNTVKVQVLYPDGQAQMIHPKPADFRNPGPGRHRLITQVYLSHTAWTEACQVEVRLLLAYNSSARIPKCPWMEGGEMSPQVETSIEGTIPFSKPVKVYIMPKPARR
UniProt O94829: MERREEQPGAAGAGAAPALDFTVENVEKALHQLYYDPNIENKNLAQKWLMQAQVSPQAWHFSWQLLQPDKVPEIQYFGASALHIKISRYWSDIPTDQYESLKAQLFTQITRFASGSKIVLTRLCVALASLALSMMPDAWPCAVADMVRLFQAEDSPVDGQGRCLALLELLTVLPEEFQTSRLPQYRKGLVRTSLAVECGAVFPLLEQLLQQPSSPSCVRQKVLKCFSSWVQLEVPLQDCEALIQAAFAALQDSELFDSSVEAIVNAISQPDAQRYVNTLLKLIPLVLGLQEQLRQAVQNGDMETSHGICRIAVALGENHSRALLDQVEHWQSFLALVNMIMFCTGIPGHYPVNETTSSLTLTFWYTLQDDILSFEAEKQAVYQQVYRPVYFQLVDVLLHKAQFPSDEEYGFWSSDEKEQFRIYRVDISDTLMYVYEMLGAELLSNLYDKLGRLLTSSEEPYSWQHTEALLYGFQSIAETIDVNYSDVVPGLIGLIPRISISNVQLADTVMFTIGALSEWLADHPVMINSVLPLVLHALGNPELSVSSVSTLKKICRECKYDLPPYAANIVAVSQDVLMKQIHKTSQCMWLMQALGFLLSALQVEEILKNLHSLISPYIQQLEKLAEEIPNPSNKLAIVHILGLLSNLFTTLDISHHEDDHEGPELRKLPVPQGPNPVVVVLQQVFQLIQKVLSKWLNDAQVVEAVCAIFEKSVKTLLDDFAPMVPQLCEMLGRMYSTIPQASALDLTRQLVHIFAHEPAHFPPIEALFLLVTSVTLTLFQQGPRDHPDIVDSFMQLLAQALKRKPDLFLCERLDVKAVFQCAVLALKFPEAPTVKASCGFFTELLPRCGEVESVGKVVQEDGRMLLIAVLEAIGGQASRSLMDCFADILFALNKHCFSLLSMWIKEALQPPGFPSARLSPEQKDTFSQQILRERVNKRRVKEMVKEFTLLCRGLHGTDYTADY
UniProt Q9NWZ3, whole entry, looked up: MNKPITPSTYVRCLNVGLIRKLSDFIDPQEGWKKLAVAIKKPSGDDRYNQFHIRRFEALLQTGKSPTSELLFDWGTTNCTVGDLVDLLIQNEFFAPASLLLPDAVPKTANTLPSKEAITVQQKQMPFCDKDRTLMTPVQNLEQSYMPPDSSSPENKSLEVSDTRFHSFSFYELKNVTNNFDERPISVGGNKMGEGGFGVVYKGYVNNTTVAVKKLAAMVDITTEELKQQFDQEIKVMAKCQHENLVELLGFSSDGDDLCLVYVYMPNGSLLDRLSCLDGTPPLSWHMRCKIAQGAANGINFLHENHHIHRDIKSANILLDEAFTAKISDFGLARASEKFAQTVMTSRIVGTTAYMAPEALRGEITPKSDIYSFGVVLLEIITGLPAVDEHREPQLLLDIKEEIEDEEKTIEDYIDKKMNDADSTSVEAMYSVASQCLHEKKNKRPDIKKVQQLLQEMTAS

[2] = compound: CC1=C(SC2=C1C(=N[C@H](C3=NN=C(N32)C)CC(=O)N)C4=CC=C(C=C4)Cl)C
Method in brief: as §1

[3] = compound: CC1=C2C(=CC=C1)N=C(N(C2=O)C3=CC=CC=C3C)CN4C=NC5=C(N=CN=C54)N
Method in brief: as §1

[4] = compound: Cc1sc2c(c1C)C(c1ccc(Cl)cc1)=N[C@@H](CC(=O)OC(C)(C)C)c1nnc(C)n1-2
Method in brief: as §1

[5] = compound: c1ccc([C@@H]2C[C@H]2NC2CCNCC2)cc1
Method in brief: as §1

Row | Target | log2 fold change [1] | log2 fold change [2] | log2 fold change [3] | log2 fold change [4] | log2 fold change [5]
1 | INPPL1 (UniProt O15357) | inactive: -0.121 | inactive: 0.01 | inactive: 0.071 | inactive: 0.101 | inactive: -0.044
2 | IPO11 isoform 2 (UniProt Q9UI26) | inactive: 0.048 | inactive: 0.064 | inactive: 0.01 | inactive: 0.013 | inactive: 0.001
3 | IRF2BP2 (UniProt Q7Z5L9) | inactive: 0.022 | inactive: 0.045 | inactive: -0.001 | inactive: -0.063 | inactive: -0.011
4 | IL1RAP isoform 5 (UniProt Q9NPH3) | inactive: -0.314 | inactive: -0.392 | inactive: 0.187 | inactive: 0.065 | inactive: -0.057
5 | IFT80 isoform 3 (UniProt Q9P2H3) | inactive: -0.011 | inactive: 0.052 | inactive: 0.083 | inactive: -0.036 | inactive: -0.027
6 | IPO8 (UniProt O15397) | inactive: -0.123 | inactive: -0.01 | inactive: 0.021 | inactive: -0.019 | inactive: 0.026
7 | IL27RA (UniProt Q6UWB1) | inactive: 0.021 | inactive: 0.144 | inactive: 0.002 | inactive: 0.097 | inactive: 0.096
8 | IMPDH1 isoform 6 (UniProt P20839) | inactive: 0.05 | inactive: -0.14 | inactive: -0.111 | inactive: -0.004 | inactive: 0
9 | IGF2BP1 (UniProt Q9NZI8) | inactive: 0.145 | inactive: -0.327 | inactive: -0.156 | inactive: 0.285 | inactive: 0.026
10 | ITIH4 (UniProt Q14624) | inactive: -0.088 | inactive: 0.015 | inactive: 0.089 | inactive: -0.133 | inactive: -0.006
11 | IMPA1 isoform 3 (UniProt P29218) | inactive: -0.011 | inactive: -0.027 | inactive: 0.003 | inactive: 0 | inactive: 0.031
12 | IGF2BP3 (UniProt O00425) | inactive: 0.132 | inactive: -0.293 | inactive: -0.017 | inactive: 0.303 | inactive: 0.039
13 | IGSF3 (UniProt O75054) | inactive: 0.006 | inactive: 0.054 | inactive: 0.001 | inactive: 0.027 | inactive: 0.044
14 | IK (UniProt Q13123) | inactive: 0.023 | inactive: -0.067 | inactive: -0.006 | inactive: 0.041 | inactive: -0.045
15 | ITPA (UniProt Q9BY32) | inactive: 0.039 | inactive: 0.082 | inactive: -0.005 | inactive: -0.026 | inactive: -0.007
16 | ILVBL (UniProt A1L0T0) | inactive: -0.016 | active: 0.371 | inactive: 0.075 | inactive: -0.067 | inactive: -0.127
17 | ISCU (UniProt Q9H1K1) | inactive: -0.012 | inactive: -0.02 | inactive: -0.031 | inactive: 0.019 | inactive: 0.016
18 | ITM2B (UniProt Q9Y287) | inactive: 0.013 | inactive: -0.068 | inactive: 0.061 | inactive: -0.028 | inactive: -0.112
19 | ILRUN (UniProt Q9H6K1) | inactive: 0.029 | inactive: 0.031 | inactive: 0.119 | inactive: 0.014 | inactive: -0.009
20 | ITGB5 (UniProt P18084) | inactive: -0.012 | inactive: 0.048 | inactive: -0.043 | inactive: 0.014 | inactive: 0.011
21 | IDH3A (UniProt P50213) | inactive: -0.029 | inactive: 0.018 | inactive: 0.026 | inactive: -0.025 | inactive: -0.005
22 | INTS4 (UniProt Q96HW7) | inactive: -0.011 | inactive: 0.016 | inactive: 0.028 | inactive: -0.025 | inactive: -0.021
23 | IPO13 (UniProt O94829) | inactive: -0.005 | inactive: 0.008 | inactive: 0.098 | inactive: 0.037 | inactive: 0.034
24 | IRAK4 (UniProt Q9NWZ3) | inactive: -0.077 | inactive: -0.006 | inactive: 0.009 | inactive: -0.012 | inactive: -0.056

Whole records, quoted from the list.
IK (UniProt Q13123) as listed: log2 fold change [1]: inactive: 0.023; log2 fold change [2]: inactive: -0.067; log2 fold change [3]: inactive: -0.006; log2 fold change [4]: inactive: 0.041; log2 fold change [5]: inactive: -0.045
INPPL1 (UniProt O15357) as listed: log2 fold change [1]: inactive: -0.121; log2 fold change [2]: inactive: 0.01; log2 fold change [3]: inactive: 0.071; log2 fold change [4]: inactive: 0.101; log2 fold change [5]: inactive: -0.044

Reference: the supplement of paper PMC10849652
